Results taken from publication doi:10.1101/2025.02.14.638307.
Read-outs that look alike come from different tables or passages of the source. No constants are given. Whether binding was seen depends on the method and setting. Binding seen in cells or lysates may run through a third protein. Some results given as binding are weak or reduced against the parent protein; the word gives no strength.

The chains behind the UniProt entries cited, without tags or fusion partners.
UniProt Q9JHI7: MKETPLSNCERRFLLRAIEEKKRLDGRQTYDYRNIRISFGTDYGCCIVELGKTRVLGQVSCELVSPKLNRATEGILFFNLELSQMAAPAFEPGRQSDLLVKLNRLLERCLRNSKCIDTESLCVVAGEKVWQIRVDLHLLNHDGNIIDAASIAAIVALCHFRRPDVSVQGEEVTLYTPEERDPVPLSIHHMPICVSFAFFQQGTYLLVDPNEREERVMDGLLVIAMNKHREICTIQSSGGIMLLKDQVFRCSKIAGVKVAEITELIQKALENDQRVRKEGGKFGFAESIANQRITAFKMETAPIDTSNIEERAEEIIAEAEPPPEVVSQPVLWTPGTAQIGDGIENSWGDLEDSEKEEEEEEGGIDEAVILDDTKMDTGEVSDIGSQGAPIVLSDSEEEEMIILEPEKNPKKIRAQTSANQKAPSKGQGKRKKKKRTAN
UniProt Q61686: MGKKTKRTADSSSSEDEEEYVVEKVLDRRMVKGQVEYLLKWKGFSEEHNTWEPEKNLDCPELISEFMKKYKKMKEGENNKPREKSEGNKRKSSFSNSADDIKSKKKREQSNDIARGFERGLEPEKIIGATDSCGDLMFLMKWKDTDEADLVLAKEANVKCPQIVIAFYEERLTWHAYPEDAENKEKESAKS
UniProt P83917: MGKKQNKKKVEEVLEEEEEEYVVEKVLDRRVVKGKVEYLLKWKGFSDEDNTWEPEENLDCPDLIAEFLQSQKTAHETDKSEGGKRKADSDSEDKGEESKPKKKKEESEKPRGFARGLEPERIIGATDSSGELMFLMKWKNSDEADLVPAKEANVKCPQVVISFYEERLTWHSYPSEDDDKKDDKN
UniProt P23198: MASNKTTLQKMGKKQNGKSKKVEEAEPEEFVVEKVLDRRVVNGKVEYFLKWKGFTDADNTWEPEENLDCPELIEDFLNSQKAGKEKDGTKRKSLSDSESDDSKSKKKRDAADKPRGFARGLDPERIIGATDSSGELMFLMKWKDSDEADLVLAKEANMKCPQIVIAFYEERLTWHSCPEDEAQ

Legend:
Assay in all cases: co-IP
[1] = molecular target: T1, MTR4 (mouse (endogenous in BMEL)) (UniProt Q9CZU3)
T1 sequence: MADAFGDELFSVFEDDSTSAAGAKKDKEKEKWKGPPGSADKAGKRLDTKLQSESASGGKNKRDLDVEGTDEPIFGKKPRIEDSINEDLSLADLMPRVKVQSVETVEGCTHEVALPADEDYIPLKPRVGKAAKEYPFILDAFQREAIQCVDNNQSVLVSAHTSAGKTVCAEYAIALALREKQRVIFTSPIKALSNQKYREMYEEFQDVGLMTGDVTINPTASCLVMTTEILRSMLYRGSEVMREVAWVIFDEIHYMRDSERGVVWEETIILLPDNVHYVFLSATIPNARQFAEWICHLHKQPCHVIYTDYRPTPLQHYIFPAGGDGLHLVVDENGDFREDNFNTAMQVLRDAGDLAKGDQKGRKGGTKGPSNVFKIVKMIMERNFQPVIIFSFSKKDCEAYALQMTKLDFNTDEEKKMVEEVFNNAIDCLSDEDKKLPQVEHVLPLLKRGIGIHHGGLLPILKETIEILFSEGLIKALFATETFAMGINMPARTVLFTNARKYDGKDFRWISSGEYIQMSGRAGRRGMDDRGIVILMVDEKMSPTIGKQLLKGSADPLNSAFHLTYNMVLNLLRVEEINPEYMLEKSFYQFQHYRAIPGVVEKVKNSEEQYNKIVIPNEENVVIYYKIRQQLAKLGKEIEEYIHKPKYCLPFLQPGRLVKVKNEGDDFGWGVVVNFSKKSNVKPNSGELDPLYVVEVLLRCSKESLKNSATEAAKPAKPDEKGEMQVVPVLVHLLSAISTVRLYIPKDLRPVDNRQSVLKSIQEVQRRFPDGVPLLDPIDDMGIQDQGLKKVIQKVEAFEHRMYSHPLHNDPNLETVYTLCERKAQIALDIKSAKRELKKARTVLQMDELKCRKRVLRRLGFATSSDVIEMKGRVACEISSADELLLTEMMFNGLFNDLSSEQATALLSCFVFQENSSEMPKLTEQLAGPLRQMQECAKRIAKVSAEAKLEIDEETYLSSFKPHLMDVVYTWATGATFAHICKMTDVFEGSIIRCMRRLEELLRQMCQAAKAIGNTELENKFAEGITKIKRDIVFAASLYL

[2] = molecular target: T2, ZC3H18 (mouse (endogenous in BMEL)) (UniProt Q0P678)
T2 sequence: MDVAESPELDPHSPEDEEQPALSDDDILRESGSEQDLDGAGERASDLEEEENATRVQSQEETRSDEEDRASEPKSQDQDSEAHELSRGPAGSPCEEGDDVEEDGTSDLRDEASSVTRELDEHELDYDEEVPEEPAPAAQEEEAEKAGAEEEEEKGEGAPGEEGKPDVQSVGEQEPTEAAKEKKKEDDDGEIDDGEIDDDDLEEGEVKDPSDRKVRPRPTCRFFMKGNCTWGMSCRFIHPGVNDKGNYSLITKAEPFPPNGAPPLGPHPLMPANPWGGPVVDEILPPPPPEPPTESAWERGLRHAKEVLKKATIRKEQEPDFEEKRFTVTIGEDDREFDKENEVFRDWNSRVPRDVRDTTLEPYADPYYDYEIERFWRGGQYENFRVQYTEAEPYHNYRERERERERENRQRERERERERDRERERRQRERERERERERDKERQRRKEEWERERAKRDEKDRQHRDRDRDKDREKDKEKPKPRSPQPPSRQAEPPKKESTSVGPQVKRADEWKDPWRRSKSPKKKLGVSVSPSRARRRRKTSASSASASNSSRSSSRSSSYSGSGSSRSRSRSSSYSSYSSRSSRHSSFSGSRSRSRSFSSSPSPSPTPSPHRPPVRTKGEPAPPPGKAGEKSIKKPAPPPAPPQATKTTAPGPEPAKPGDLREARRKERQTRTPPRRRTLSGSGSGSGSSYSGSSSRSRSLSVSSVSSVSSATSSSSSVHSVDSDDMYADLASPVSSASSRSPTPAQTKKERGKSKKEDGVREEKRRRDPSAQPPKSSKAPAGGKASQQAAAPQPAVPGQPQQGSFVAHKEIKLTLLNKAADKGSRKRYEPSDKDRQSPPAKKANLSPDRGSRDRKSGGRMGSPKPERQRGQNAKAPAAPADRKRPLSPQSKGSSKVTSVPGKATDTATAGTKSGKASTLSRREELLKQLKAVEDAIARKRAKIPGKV

[3] = molecular target: EXOSC9 (mouse (endogenous in BMEL)) (UniProt Q9JHI7)
[4] = molecular target: T3, EXOSC10 (mouse (endogenous in BMEL)) (UniProt P56960)
T3 sequence: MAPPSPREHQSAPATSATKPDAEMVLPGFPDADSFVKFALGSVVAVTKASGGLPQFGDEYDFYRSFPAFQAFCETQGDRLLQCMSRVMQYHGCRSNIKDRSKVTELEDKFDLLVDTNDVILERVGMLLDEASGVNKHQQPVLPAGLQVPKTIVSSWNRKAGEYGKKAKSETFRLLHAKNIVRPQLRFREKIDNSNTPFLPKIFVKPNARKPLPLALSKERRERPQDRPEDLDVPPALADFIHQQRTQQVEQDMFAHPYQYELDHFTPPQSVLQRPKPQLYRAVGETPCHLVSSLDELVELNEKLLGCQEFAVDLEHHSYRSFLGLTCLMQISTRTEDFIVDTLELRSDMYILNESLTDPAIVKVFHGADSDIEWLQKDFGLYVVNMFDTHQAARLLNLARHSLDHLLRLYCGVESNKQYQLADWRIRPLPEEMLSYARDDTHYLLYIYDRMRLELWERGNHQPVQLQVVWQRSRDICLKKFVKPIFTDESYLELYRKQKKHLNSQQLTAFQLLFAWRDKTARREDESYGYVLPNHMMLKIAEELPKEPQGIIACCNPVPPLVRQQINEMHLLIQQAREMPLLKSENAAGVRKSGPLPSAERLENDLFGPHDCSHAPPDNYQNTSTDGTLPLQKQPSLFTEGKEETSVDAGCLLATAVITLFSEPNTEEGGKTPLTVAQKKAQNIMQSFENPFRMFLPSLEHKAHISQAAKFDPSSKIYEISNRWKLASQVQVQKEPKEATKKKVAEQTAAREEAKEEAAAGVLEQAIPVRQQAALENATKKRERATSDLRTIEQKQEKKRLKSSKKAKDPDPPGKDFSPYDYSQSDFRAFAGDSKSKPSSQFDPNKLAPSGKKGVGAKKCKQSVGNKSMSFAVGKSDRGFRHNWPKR

[5] = molecular target: T2, ZC3H18 (mouse (endogenous in BMEL)); remark: listed apart in the source
[6] = molecular target: EXOSC9 (mouse (endogenous in BMEL)) (UniProt Q9JHI7); remark: listed apart in the source

binding [1] | binding [2] | binding [3] | binding [4] | binding [5] | binding [6] | Substance
binds | binds | binds | – | – | – | HP1α (from UniProt Q61686 1-191)
binds | binds | binds | – | – | – | HP1β (from UniProt P83917 1-185)
binds | binds | binds | binds | binds | binds | HP1γ (from UniProt P23198 1-183)
